Some results were stated once for a whole list of compounds, not compound by compound.
Tested on: Cancer cells (KG-1)
Assay: Cytotoxicity assay, WST-1, KG-1
Assay type: cell-based
Details: (6+5) bicyclic heteroaryl compared to (6+6) bicyclic heteroaryls (comparative compounds 1-3)
Description: To evaluate the effect of the compounds of the present disclosure on cancer cells, a cytotoxicity assay was conducted as follows.
Cancer cells (KG-1) were seeded at a concentration of 10,000 cells per well into a 96-well plate. Then, the cells were treated with predetermined concentrations of compounds of the Examples and comparative substances (comparative compounds 1, 2, 3). After 72 hours, the cells were incubated with WST-1 reagent for one hour. Then, absorbance was measured at 450 nm using a spectramax spectrophotometer to assess the degree of cancer cell apoptosis. The IC50 (μM) values were calculated using the measured values with the GraphPad Prism program and the measurements are summarized in Table 1.

SMILES | cytotoxic activity against KG-1 and cancer cells (in words)
O=C1CCC(N2Cc3cc(CNC(=O)c4nc5cc(Cl)ccc5[nH]4)ccc3C2=O)C(=O)N1 (centres unmarked) [Compound 3, 5-Chloro-N-((2-(2,6-dioxopiperidin-3-yl)-1-oxoisoindolin-5-yl)methyl)-1H-benzo[d]imidazole-2-carboxamide] | superior cytotoxic activity
O=C1CCC(N2Cc3cc(CNC(=O)c4n[nH]c5cc(Cl)c(Cl)cc45)ccc3C2=O)C(=O)N1 (centres unmarked) [Compound 4, 5,6-Dichloro-N-((2-(2,6-dioxopiperidin-3-yl)-1-oxoisoindolin-5-yl)methyl)-1H-indazole-3-carboxamide] | superior cytotoxic activity
O=C1CCC(N2Cc3cc(CNC(=O)c4c[nH]c5cc(Cl)ccc45)ccc3C2=O)C(=O)N1 (centres unmarked) [Compound 6, 6-chloro-N-((2-(2,6-dioxopiperidin-3-yl)-1-oxoisoindolin-5-yl)methyl)-1H-indole-3-carboxamide] | superior cytotoxic activity
O=C1CCC(N2Cc3cc(CNC(=O)c4c[nH]c5ccc(Cl)cc45)ccc3C2=O)C(=O)N1 (centres unmarked) [Compound 7, 5-Chloro-N-((2-(2,6-dioxopiperidin-3-yl)-1-oxoisoindolin-5-yl)methyl)-1H-indole-3-carboxamide] | superior cytotoxic activity
O=C1CCC(N2Cc3cc(CNC(=O)c4n[nH]c5ccc(Cl)cc45)ccc3C2=O)C(=O)N1 (centres unmarked) [Compound 8, 5-Chloro-N-((2-(2,6-dioxopiperidin-3-yl)-1-oxoisoindolin-5-yl)methyl)-1H-indazole-3-carboxamide] | superior cytotoxic activity
O=C1CCC(N2Cc3cc(CNC(=O)c4cc5ccc(Cl)cc5[nH]4)ccc3C2=O)C(=O)N1 (centres unmarked) [Compound 9, 6-chloro-N-((2-(2,6-dioxopiperidin-3-yl)-1-oxoisoindolin-5-yl)methyl)-1H-indole-2-carboxamide] | superior cytotoxic activity
O=C1CCC(N2Cc3cc(CNC(=O)c4noc5cc(Cl)ccc45)ccc3C2=O)C(=O)N1 (centres unmarked) [Compound 10, 6-Chloro-N-((2-(2,6-dioxopiperidin-3-yl)-1-oxoisoindolin-5-yl)methyl)benzo[d]isoxazole-3-carboxamide] | superior cytotoxic activity
O=C1CCC(N2Cc3cc(CNC(=O)c4nc5ccc(Cl)cc5s4)ccc3C2=O)C(=O)N1 (centres unmarked) [Compound 26, 6-Chloro-N-((2-(2,6-dioxopiperidin-3-yl)-1-oxoisoindolin-5-yl)methyl)benzo[d]thiazole-2-carboxamide] | superior cytotoxic activity
O=C1CCC(N2Cc3cc(CNC(=O)c4n[nH]c5ccccc45)ccc3C2=O)C(=O)N1 (centres unmarked) [Compound 34, N-((2-(2,6-Dioxopiperidin-3-yl)-1-oxoisoindolin-5-yl)methyl)-1H-indazole-3-carboxamide] | superior cytotoxic activity
Cn1nc(C(=O)NCc2ccc3c(c2)CN(C2CCC(=O)NC2=O)C3=O)c2ccccc21 (centres unmarked) [Compound 36, N-((2-(2,6-Dioxopiperidin-3-yl)-1-oxoisoindolin-5-yl)methyl)-1-methyl-1H-indazole-3-carboxamide] | superior cytotoxic activity
O=C1CCC(N2Cc3cc(CNC(=O)c4nc5cc(Cl)ccc5s4)ccc3C2=O)C(=O)N1 (centres unmarked) [Compound 44, 5-chloro-N-((2-(2,6-dioxopiperidin-3-yl)-1-oxoisoindolin-5-yl)methyl)benzo[d]thiazole-2-carboxamide] | superior cytotoxic activity

Same assay, conditions: monocyclic heteroaryl R1 with aryl R2 compared to those without such substituents (Compounds 30 and 38)

SMILES | cytotoxic activity against cancer cells (in words)
O=C1CCC(N2Cc3cc(CNC(=O)c4cc(-c5ccc(Cl)cc5)n[nH]4)ccc3C2=O)C(=O)N1 (centres unmarked) [Compound 2, 3-(4-Chlorophenyl)-N-((2-(2,6-dioxopiperidin-3-yl)-1-oxoisoindolin-5-yl)methyl)-1H-pyrazole-5-carboxamide] | more superior cytotoxic activity
O=C1CCC(N2Cc3cc(CNC(=O)c4cc(-c5cccc(Cl)c5)n[nH]4)ccc3C2=O)C(=O)N1 (centres unmarked) [Compound 5, 3-(3-Chlorophenyl)-N-((2-(2,6-dioxopiperidin-3-yl)-1-oxoisoindolin-5-yl)methyl)-1H-pyrazole-5-carboxamide] | more superior cytotoxic activity
O=C1CCC(N2Cc3cc(CNC(=O)c4cc(-c5ccc(Cl)cc5)on4)ccc3C2=O)C(=O)N1 (centres unmarked) [Compound 11, 5-(4-Chlorophenyl)-N-((2-(2,6-dioxopiperidin-3-yl)-1-oxoisoindolin-5-yl)methyl)isoxazole-3-carboxamide] | more superior cytotoxic activity
O=C1CCC(N2Cc3cc(CNC(=O)c4cc(-c5cccc(Cl)c5)c[nH]4)ccc3C2=O)C(=O)N1 (centres unmarked) [Compound 14, 4-(3-Chlorophenyl)-N-((2-(2,6-dioxopiperidin-3-yl)-1-oxoisoindolin-5-yl)methyl)-1H-pyrrole-2-carboxamide] | more superior cytotoxic activity
O=C1CCC(N2Cc3cc(CNC(=O)c4cn(-c5cccc(Cl)c5)nn4)ccc3C2=O)C(=O)N1 (centres unmarked) [Compound 15, 1-(3-chlorophenyl)-N-((2-(2,6-dioxopiperidin-3-yl)-1-oxoisoindolin-5-yl)methyl)-1H-1,2,3-triazole-4-carboxamide] | more superior cytotoxic activity
Cc1c(C(=O)NCc2ccc3c(c2)CN(C2CCC(=O)NC2=O)C3=O)n[nH]c1-c1ccccc1 (centres unmarked) [Compound 17, N-((2-(2,6-Dioxopiperidin-3-yl)-1-oxoisoindolin-5-yl)methyl)-4-methyl-5-phenyl-1H-pyrazole-3-carboxamide] | more superior cytotoxic activity
O=C1CCC(N2Cc3cc(CNC(=O)c4cc(-c5ccc(Cl)cc5)ccn4)ccc3C2=O)C(=O)N1 (centres unmarked) [Compound 18, 4-(4-chlorophenyl)-N-((2-(2,6-dioxopiperidin-3-yl)-1-oxoisoindolin-5-yl)methyl)picolinamide] | more superior cytotoxic activity
O=C1CCC(N2Cc3cc(CNC(=O)c4cc(-c5cccc(Cl)c5)on4)ccc3C2=O)C(=O)N1 (centres unmarked) [Compound 19, 5-(3-Chlorophenyl)-N-((2-(2,6-dioxopiperidin-3-yl)-1-oxoisoindolin-5-yl)methyl)isoxazole-3-carboxamide] | more superior cytotoxic activity
O=C1CCC(N2Cc3cc(CNC(=O)c4ncc(-c5cccc(Cl)c5)cn4)ccc3C2=O)C(=O)N1 (centres unmarked) [Compound 20, 5-(3-Chlorophenyl)-N-((2-(2,6-dioxopiperidin-3-yl)-1-oxoisoindolin-5-yl)methyl)pyrimidine-2-carboxamide] | more superior cytotoxic activity
Cc1c(C(=O)NCc2ccc3c(c2)CN(C2CCC(=O)NC2=O)C3=O)nn(Cc2ccccc2)c1-c1cccc(Cl)c1 (centres unmarked) [Compound 21, 1-Benzyl-5-(3-chlorophenyl)-N-((2-(2,6-dioxopiperidin-3-yl)-1-oxoisoindolin-5-yl)methyl)-4-methyl-1H-pyrazole-3-carboxamide] | more superior cytotoxic activity
Cn1nc(C(=O)NCc2ccc3c(c2)CN(C2CCC(=O)NC2=O)C3=O)cc1-c1ccccc1 (centres unmarked) [Compound 23, N-((2-(2,6-Dioxopiperidin-3-yl)-1-oxoisoindolin-5-yl)methyl)-1-methyl-5-phenyl-1H-pyrazole-3-carboxamide] | more superior cytotoxic activity
O=C1CCC(N2Cc3cc(CNC(=O)c4cc(-c5ccc(Cl)cc5Cl)[nH]n4)ccc3C2=O)C(=O)N1 (centres unmarked) [Compound 25, 5-(2,4-Dichlorophenyl)-N-((2-(2,6-dioxopiperidin-3-yl)-1-oxoisoindolin-5-yl)methyl)-1H-pyrazole-3-carboxamide] | more superior cytotoxic activity
Cc1ccc(-c2cc(C(=O)NCc3ccc4c(c3)CN(C3CCC(=O)NC3=O)C4=O)n[nH]2)c(C)c1 (centres unmarked) [Compound 29, 5-(2,4-Dimethylphenyl)-N-((2-(2,6-dioxopiperidin-3-yl)-1-oxoisoindolin-5-yl)methyl)-1H-pyrazole-3-carboxamide] | more superior cytotoxic activity
O=C1CCC(N2Cc3cc(CNC(=O)c4cc(-c5ccccc5)ccn4)ccc3C2=O)C(=O)N1 (centres unmarked) [Compound 32, N-((2-(2,6-Dioxopiperidin-3-yl)-1-oxoisoindolin-5-yl)methyl)-4-phenylpicolinamide] | more superior cytotoxic activity
Cn1cc(-c2ccccc2)cc1C(=O)NCc1ccc2c(c1)CN(C1CCC(=O)NC1=O)C2=O (centres unmarked) [Compound 39, N-((2-(2,6-Dioxopiperidin-3-yl)-1-oxoisoindolin-5-yl)methyl)-1-methyl-4-phenyl-1H-pyrrole-2-carboxamide] | more superior cytotoxic activity
Cn1cc(-c2cccc(Cl)c2)cc1C(=O)NCc1ccc2c(c1)CN(C1CCC(=O)NC1=O)C2=O (centres unmarked) [Compound 40, 4-(3-Chlorophenyl)-N-((2-(2,6-dioxopiperidin-3-yl)-1-oxoisoindolin-5-yl)methyl)-1-methyl-1H-pyrrole-2-carboxamide] | more superior cytotoxic activity
Cc1cnc(C(=O)NCc2ccc3c(c2)CN(C2CCC(=O)NC2=O)C3=O)cc1-c1ccccc1 (centres unmarked) [Compound 45, N-((2-(2,6-Dioxopiperidin-3-yl)-1-oxoisoindolin-5-yl)methyl)-5-methyl-4-phenylpicolinamide] | more superior cytotoxic activity
O=C1CCC(N2Cc3cc(CNC(=O)c4cc(-c5ccccc5)c(Cl)cn4)ccc3C2=O)C(=O)N1 (centres unmarked) [Compound 46, 5-Chloro-N-((2-(2,6-dioxopiperidin-3-yl)-1-oxoisoindolin-5-yl)methyl)-4-phenylpicolinamide] | more superior cytotoxic activity

Source: patent publication US20250346575A1, “ISOINDOLINONE DERIVATIVE HAVING GLUTARIMIDE MOTHER NUCLEUS, AND USE THEREOF” (KOREA RESEARCH INSTITUTE OF CHEMICAL TECHNOLOGY, priority 2021, published 2025)
